# Some of the results follow.
# B1: Protein L(B1-B4) (Finegoldia magna), Q51912 (protein)
# chain: KEETPETPETDSEEEVTIKANLIFANGSTQTAEFKGTFEKATSEAYAYADTLKKDNGEYTVDVADKGYTLNIKFAGKEKTPEEPKEEVTIKANLIYADGKTQTAEFKGTFEEATAEAYRYADALKKDNGEYTVDVADKGYTLNIKFAGKEKTPEEPKEEVTIKANLIYADGKTQTAEFKGTFEEATAEAYRYADLLAKENGKYTVDVADKGYTLNIKFAGKEKTPEEPKEEVTIKANLIYADGKTQTAEFKGTFAEATAEAYRYADLLAKENGKYTADLEDGGYTINIRFAG
# Legend:
# Assay in all cases: glycan array binding signal (z-score within array); higher = stronger binding
# Details in all cases: glycan notation: IUPAC condensed, linker removed
# [1] = molecular target: Neu5Ac(a2-3)Gal(b1-3)[Fuc(a1-4)]GlcNAc
# Procedure, shortened: (§1)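 Columns mapping to the same glycan were averaged after glycan names were converted to IUPAC-condensed notation. The data come from 3228 arrays in the Consortium for Functional Glycomics database, limited to those with an available protein sequence. Binding is reported as a within-array Z-score averaged across arrays of one protein sequence and across linkers.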
# [2] = molecular target: Neu5Ac(a2-3)Gal(b1-3)[Fuc(a1-4)]GlcNAc(b1-3)Gal(b1-3)[Fuc(a1-4)]GlcNAc
# Procedure, shortened: as §1
# [3] = molecular target: Neu5Ac(a2-3)Gal(b1-3)[Fuc(a1-4)]GlcNAc(b1-3)Gal(b1-4)[Fuc(a1-3)]GlcNAc
# Procedure, shortened: as §1
# [4] = molecular target: Neu5Ac(a2-3)Gal(b1-3)[GlcNAc(b1-6)]GalNAc
# Procedure, shortened: as §1
# [5] = molecular target: Neu5Ac(a2-3)Gal(b1-3)[Neu5Ac(a2-6)]GalNAc
# Procedure, shortened: as §1
# [6] = molecular target: Neu5Ac(a2-3)Gal(b1-3)[Neu5Ac(a2-6)]GlcNAc(b1-3)[Fuc(a1-3)[Gal(b1-4)]GlcNAc(b1-6)]Gal(b1-4)Glc
# Procedure, shortened: as §1
# [7] = molecular target: Neu5Ac(a2-3)Gal(b1-3)]Neu5Ac(a2-3)Gal(b1-4)]GlcNAc
# Procedure, shortened: as §1
# Neu5Ac(a2-3)Gal(b1-4)Glc = molecular target: Neu5Ac(a2-3)Gal(b1-4)Glc
# Procedure, shortened: as §1
# [8] = molecular target: Neu5Ac(a2-3)Gal(b1-4)GlcNAc
# Procedure, shortened: as §1
# [9] = molecular target: Neu5Ac(a2-3)Gal(b1-4)GlcNAc(b1-2)Man
# Procedure, shortened: as §1
# [10] = molecular target: Neu5Ac(a2-3)Gal(b1-4)GlcNAc(b1-2)Man(a1-3)[GlcNAc(b1-4)][Neu5Ac(a2-3)Gal(b1-4)GlcNAc(b1-2)Man(a1-6)]Man(b1-4)GlcNAc(b1-4)GlcNAc
# Procedure, shortened: as §1
# [11] = molecular target: Neu5Ac(a2-3)Gal(b1-4)GlcNAc(b1-2)Man(a1-3)[Neu5Ac(a2-3)Gal(b1-4)GlcNAc(b1-2)Man(a1-6)]Man(b1-4)GlcNAc(b1-4)GlcNAc
# Procedure, shortened: as §1
# [12] = molecular target: Neu5Ac(a2-3)Gal(b1-4)GlcNAc(b1-2)Man(a1-3)[Neu5Ac(a2-3)Gal(b1-4)GlcNAc(b1-2)Man(a1-6)]Man(b1-4)GlcNAc(b1-4)[Fuc(a1-6)]GlcNAc
# Procedure, shortened: as §1
# [13] = molecular target: Neu5Ac(a2-3)Gal(b1-4)GlcNAc(b1-2)Man(a1-3)[Neu5Ac(a2-6)Gal(b1-4)GlcNAc(b1-2)Man(a1-6)]Man(b1-4)GlcNAc(b1-4)GlcNAc
# Procedure, shortened: as §1
# [14] = molecular target: Neu5Ac(a2-3)Gal(b1-4)GlcNAc(b1-2)[Neu5Ac(a2-3)Gal(b1-4)GlcNAc(b1-4)]Man(a1-3)[GlcNAc(b1-4)][Neu5Ac(a2-3)Gal(b1-4)GlcNAc(b1-2)[Neu5Ac(a2-3)Gal(b1-4)GlcNAc(b1-6)]Man(a1-6)]Man(b1-4)GlcNAc(b1-4)GlcNAc
# Procedure, shortened: as §1
# [15] = molecular target: Neu5Ac(a2-3)Gal(b1-4)GlcNAc(b1-2)[Neu5Ac(a2-3)Gal(b1-4)GlcNAc(b1-4)]Man(a1-3)[GlcNAc(b1-4)][Neu5Ac(a2-3)Gal(b1-4)GlcNAc(b1-4)Man(a1-6)]Man(b1-4)GlcNAc(b1-4)GlcNAc
# Procedure, shortened: as §1
# [16] = molecular target: Neu5Ac(a2-3)Gal(b1-4)GlcNAc(b1-2)[Neu5Ac(a2-3)Gal(b1-4)GlcNAc(b1-6)]Man(a1-6)[Neu5Ac(a2-3)Gal(b1-4)GlcNAc(b1-2)Man(a1-3)]Man(b1-4)GlcNAc(b1-4)GlcNAc
# Procedure, shortened: as §1
# [17] = molecular target: Neu5Ac(a2-3)Gal(b1-4)GlcNAc(b1-2)[Neu5Ac(a2-3)Gal(b1-4)GlcNAc(b1-6)]Man(a1-6)[Neu5Ac(a2-3)Gal(b1-4)GlcNAc(b1-2)Man(a1-3)][GlcNAc(b1-4)]Man(b1-4)GlcNAc(b1-4)GlcNAc
# Procedure, shortened: as §1
# [18] = molecular target: Neu5Ac(a2-3)Gal(b1-4)GlcNAc(b1-3)Gal
# Procedure, shortened: as §1
# [19] = molecular target: Neu5Ac(a2-3)Gal(b1-4)GlcNAc(b1-3)Gal(b1-3)GlcNAc
# Procedure, shortened: as §1
# [20] = molecular target: Neu5Ac(a2-3)Gal(b1-4)GlcNAc(b1-3)Gal(b1-4)GlcNAc
# Procedure, shortened: as §1
# [21] = molecular target: Neu5Ac(a2-3)Gal(b1-4)GlcNAc(b1-3)Gal(b1-4)GlcNAc(b1-2)Man(a1-3)[Neu5Ac(a2-3)Gal(b1-4)GlcNAc(b1-3)Gal(b1-4)GlcNAc(b1-2)Man(a1-6)]Man(b1-4)GlcNAc(b1-4)GlcNAc
# Procedure, shortened: as §1
# [22] = molecular target: Neu5Ac(a2-3)Gal(b1-4)GlcNAc(b1-3)Gal(b1-4)GlcNAc(b1-3)Gal(b1-4)GlcNAc
# Procedure, shortened: as §1
# [23] = molecular target: Neu5Ac(a2-3)Gal(b1-4)GlcNAc(b1-3)Gal(b1-4)GlcNAc(b1-3)Gal(b1-4)GlcNAc(b1-2)Man(a1-3)[Neu5Ac(a2-3)Gal(b1-4)GlcNAc(b1-3)Gal(b1-4)GlcNAc(b1-3)Gal(b1-4)GlcNAc(b1-2)Man(a1-6)]GalNAc
# Procedure, shortened: as §1
# [24] = molecular target: Neu5Ac(a2-3)Gal(b1-4)GlcNAc(b1-3)Gal(b1-4)GlcNAc(b1-3)GalNAc
# Procedure, shortened: as §1
# [25] = molecular target: Neu5Ac(a2-3)Gal(b1-4)GlcNAc(b1-3)Gal(b1-4)GlcNAc(b1-3)[Neu5Ac(a2-3)Gal(b1-4)GlcNAc(b1-3)Gal(b1-4)GlcNAc(b1-6)]GalNAc
# Procedure, shortened: as §1
# [26] = molecular target: Neu5Ac(a2-3)Gal(b1-4)GlcNAc(b1-3)Gal(b1-4)GlcNAc(b1-6)[Gal(b1-3)]GalNAc
# Procedure, shortened: as §1
# [27] = molecular target: Neu5Ac(a2-3)Gal(b1-4)GlcNAc(b1-3)Gal(b1-4)[Fuc(a1-3)]GlcNAc
# Procedure, shortened: as §1
# [28] = molecular target: Neu5Ac(a2-3)Gal(b1-4)GlcNAc(b1-3)GalNAc
# Procedure, shortened: as §1
# [29] = molecular target: Neu5Ac(a2-3)Gal(b1-4)GlcNAc(b1-3)[Neu5Ac(a2-3)Gal(b1-4)GlcNAc(b1-6)]GalNAc
# Procedure, shortened: as §1
# [30] = molecular target: Neu5Ac(a2-3)Gal(b1-4)GlcNAc(b1-6)GalNAc
# Procedure, shortened: as §1
# [31] = molecular target: Neu5Ac(a2-3)Gal(b1-4)GlcNAc(b1-6)[Gal(b1-3)]GalNAc
# Procedure, shortened: as §1
# [32] = molecular target: Neu5Ac(a2-3)Gal(b1-4)GlcNAc(b1-6)[Neu5Ac(a2-3)Gal(b1-3)]GalNAc
# Procedure, shortened: as §1
# [33] = molecular target: Neu5Ac(a2-3)Gal(b1-4)GlcNAc6S
# Procedure, shortened: as §1
# [34] = molecular target: Neu5Ac(a2-3)Gal(b1-4)[Fuc(a1-3)]GlcNAc
# Procedure, shortened: as §1
# [35] = molecular target: Neu5Ac(a2-3)Gal(b1-4)[Fuc(a1-3)]GlcNAc(b1-2)Man
# Procedure, shortened: as §1
# [36] = molecular target: Neu5Ac(a2-3)Gal(b1-4)[Fuc(a1-3)]GlcNAc(b1-3)Gal
# Procedure, shortened: as §1
# [37] = molecular target: Neu5Ac(a2-3)Gal(b1-4)[Fuc(a1-3)]GlcNAc(b1-3)Gal(b1-4)GlcNAc
# Procedure, shortened: as §1
# [38] = molecular target: Neu5Ac(a2-3)Gal(b1-4)[Fuc(a1-3)]GlcNAc(b1-3)Gal(b1-4)[Fuc(a1-3)]GlcNAc(b1-3)Gal(b1-4)[Fuc(a1-3)]GlcNAc
# Procedure, shortened: as §1
# [39] = molecular target: Neu5Ac(a2-3)Gal(b1-4)[Fuc(a1-3)]GlcNAc(b1-3)GalNAc
# Procedure, shortened: as §1
# [40] = molecular target: Neu5Ac(a2-3)Gal(b1-4)[Fuc(a1-3)]GlcNAc(b1-6)[Gal(b1-3)]GalNAc
# Procedure, shortened: as §1
# [41] = molecular target: Neu5Ac(a2-3)Gal(b1-4)[Fuc(a1-3)]GlcNAc(b1-6)[Neu5Ac(a2-3)Gal(b1-3)]GalNAc
# Procedure, shortened: as §1
# [42] = molecular target: Neu5Ac(a2-3)Gal(b1-4)[Fuc(a1-3)]GlcNAc6S
# Procedure, shortened: as §1
# [43] = molecular target: Neu5Ac(a2-3)Gal6S(b1-4)GlcNAc
# Procedure, shortened: as §1
# [44] = molecular target: Neu5Ac(a2-3)Gal6S(b1-4)[Fuc(a1-3)]GlcNAc
# Procedure, shortened: as §1
binder,measurement,setting,value
B1,glycan array binding signal (z-score),[1],-0.716
same,glycan array binding signal (z-score),[2],0.953
same,glycan array binding signal (z-score),[3],1.63
same,glycan array binding signal (z-score),[4],-0.677
same,glycan array binding signal (z-score),[5],0.854
same,glycan array binding signal (z-score),[6],-0.951
same,glycan array binding signal (z-score),[7],-0.478
same,glycan array binding signal (z-score),Neu5Ac(a2-3)Gal(b1-4)Glc,0.184
same,glycan array binding signal (z-score),[8],-0.799
same,glycan array binding signal (z-score),[9],0.654
same,glycan array binding signal (z-score),[10],-0.728
same,glycan array binding signal (z-score),[11],-0.503
same,glycan array binding signal (z-score),[12],1.45
same,glycan array binding signal (z-score),[13],-1.02
same,glycan array binding signal (z-score),[14],-0.913
same,glycan array binding signal (z-score),[15],-0.805
same,glycan array binding signal (z-score),[16],0.844
same,glycan array binding signal (z-score),[17],-0.715
same,glycan array binding signal (z-score),[18],-0.978
same,glycan array binding signal (z-score),[19],-0.446
same,glycan array binding signal (z-score),[20],-1
same,glycan array binding signal (z-score),[21],1.16
same,glycan array binding signal (z-score),[22],-1.05
same,glycan array binding signal (z-score),[23],2.34
same,glycan array binding signal (z-score),[24],0.742
same,glycan array binding signal (z-score),[25],0.607
same,glycan array binding signal (z-score),[26],0.685
same,glycan array binding signal (z-score),[27],-0.359
same,glycan array binding signal (z-score),[28],-0.004
same,glycan array binding signal (z-score),[29],-0.878
same,glycan array binding signal (z-score),[30],-0.414
same,glycan array binding signal (z-score),[31],-0.434
same,glycan array binding signal (z-score),[32],-0.185
same,glycan array binding signal (z-score),[33],-0.92
same,glycan array binding signal (z-score),[34],-0.762
same,glycan array binding signal (z-score),[35],0.666
same,glycan array binding signal (z-score),[36],-0.987
same,glycan array binding signal (z-score),[37],0.336
same,glycan array binding signal (z-score),[38],0.738
same,glycan array binding signal (z-score),[39],0.972
same,glycan array binding signal (z-score),[40],2.09
same,glycan array binding signal (z-score),[41],2.49
same,glycan array binding signal (z-score),[42],-1.03
same,glycan array binding signal (z-score),[43],-0.901
same,glycan array binding signal (z-score),[44],-0.538

# Quoted from the entries so far for reference:
binder,measurement,setting,value
B1,glycan array binding signal (z-score),[19],-0.446
same,glycan array binding signal (z-score),[20],-1

# From the supplement of paper PMC8728848
